According to PubChem BioAssay AID248 (DTP/NCI, 2004):
The list does not hold the whole screen: it is rich in T/C values a quarter to a half above the control, in often repeated tests (any T/C) and in doses without a T/C. Other doses and runs of a compound stand elsewhere. T/C gives the treated animals as a percentage of the vehicle group. Some entries give survivors of the animals treated and no T/C: the source holds a T/C of zero for them, seemingly a mark for toxic or unscored doses. Some doses without a T/C left all or most animals alive at the check, yet need not have been tolerated: the source hardly ever lists a survival T/C far under the control, and the zero likely stands for such cases as well. Survivors were counted at the toxicity check, usually on the fifth day, unless a day is given; later deaths do not show. Schedules are NCI's codes, read here as Q, the interval in days (D) or hours (H), X, the number of doses. Some schedule codes hold Z or #, which are not explained here. Some doses were run more than once; the values are given in rising order. Where survival is the endpoint, the PubChem record calls one and a half times the control and up active, and a quarter to a half above the control has no call in these data; cut-offs in other NCI protocols can differ. Some T/C values carry the count of animals alive at the toxicity check (mostly the fifth day); without a count, all were alive then.

Tested on: L1210 leukemia ip in BDF1 mice, survival T/C
Assay: NCI In Vivo Anticancer Drug Screen. Data for tumor model L1210 Leukemia (intraperitoneal) in B6D2F1 (BDF1) mice
Settings: higher T/C = longer survival
[1] = T/C endpoint: mean survival time, dose: 3.0 mg/kg/injection, schedule: Q04DX003 (ip), vehicle: saline
[2] = T/C endpoint: mean survival time, dose: 400.0 mg/kg/injection, schedule: Q01DX001 (ip), vehicle: saline
[3] = T/C endpoint: mean survival time, dose: 100.0 mg/kg/injection, schedule: Q01DX001 (ip), vehicle: saline
[4] = T/C endpoint: mean survival time, dose: 200.0 mg/kg/injection, schedule: Q01DX001 (ip), vehicle: saline
[5] = T/C endpoint: mean survival time, dose: 400.0 mg/kg/injection, schedule: Q01DX009 (ip), vehicle: Klucel (hydroxypropylcellulose) (HPC)
[6] = T/C endpoint: mean survival time, dose: 300.0 mg/kg/injection, schedule: Q01DX001 (ip), vehicle: saline
[7] = T/C endpoint: mean survival time, dose: 400.0 mg/kg/injection, schedule: Q01DX009 (ip), vehicle: saline
[8] = T/C endpoint: mean survival time, dose: 100.0 mg/kg/injection, schedule: Q01DX009 (ip), vehicle: Klucel (hydroxypropylcellulose) (HPC)
[9] = T/C endpoint: mean survival time, dose: 400.0 mg/kg/injection, schedule: Q01DX001 (ip), vehicle: carboxymethylcellulose (CMC)
[10] = T/C endpoint: mean survival time, dose: 400.0 mg/kg/injection, schedule: Q04DX003 (ip), vehicle: saline with Tween-80

For `CN(C)C1=C(N2CC2)C(=O)C(N(C)C)=C(N2CC2)C1=O`, the T/C (T/C endpoint: mean survival time, dose: 0.18 mg/kg/injection, schedule: Q04DX003 (ip), vehicle: saline) was 97, 103, 108, 138 % of control, the T/C (T/C endpoint: mean survival time, dose: 0.37 mg/kg/injection, schedule: Q04DX003 (ip), vehicle: saline) was 106, 108, 111, 151 % of control and the T/C (T/C endpoint: mean survival time, dose: 0.75 mg/kg/injection, schedule: Q01DX009 (ip), vehicle: saline) was 139 % of control. The T/C (T/C endpoint: mean survival time, dose: 0.75 mg/kg/injection, schedule: Q04DX003 (ip), vehicle: saline) was 97, 101, 124, 151 % of control, the survivor count (T/C endpoint: mean survival time, dose: 1.5 mg/kg/injection, schedule: Q01DX009 (ip), vehicle: saline) was 6 of 6 and the T/C (T/C endpoint: mean survival time, dose: 1.5 mg/kg/injection, schedule: Q04DX003 (ip), vehicle: saline) was 98, 137, 152, 156 % of control. For the same compound, the T/C [1] was 138, 173, 220 % of control, the survivor count [1] was 5 of 6 and the survivor count (T/C endpoint: mean survival time, dose: 6.0 mg/kg/injection, schedule: Q04DX003 (ip), vehicle: saline) was 2 of 6 and 6 of 6.
In the case of `COC1(c2ccc(Cl)cc2)OC(=O)C(c2ccccc2)=C1Cc1ccccc1` (stereo not drawn), the survivor count (T/C endpoint: mean survival time, dose: 50.0 mg/kg/injection, schedule: Q01DX009 (ip), vehicle: saline with Tween-80) is reported as 3 of 3, the survivor count (T/C endpoint: mean survival time, dose: 100.0 mg/kg/injection, schedule: Q01DX009 (ip), vehicle: saline with Tween-80) is reported as 3 of 3 and the survivor count (T/C endpoint: mean survival time, dose: 200.0 mg/kg/injection, schedule: Q01DX009 (ip), vehicle: saline with Tween-80) is reported as 3 of 3.
With `CCCN(CCC)CC(C)O` (stereo not drawn) the survivor count (T/C endpoint: mean survival time, dose: 400.0 mg/kg/injection, schedule: Q04DX003 (ip), vehicle: saline) was 0 of 6.
`[I][Hg][CH2]C1COC([CH2][Hg][I])CO1` (stereo not drawn) was tested, and the survivor count (T/C endpoint: median survival time, dose: 12.5 mg/kg/injection, schedule: Q01DX009 (ip), vehicle: saline) was 6 of 6, the survivor count (T/C endpoint: median survival time, dose: 25.0 mg/kg/injection, schedule: Q01DX009 (ip), vehicle: saline) was 6 of 6 and the survivor count (T/C endpoint: median survival time, dose: 50.0 mg/kg/injection, schedule: Q01DX009 (ip), vehicle: saline) was 6 of 6. The survivor count (T/C endpoint: median survival time, dose: 100.0 mg/kg/injection, schedule: Q01DX009 (ip), vehicle: saline) was 3 of 6 and 4 of 6.
With `Nc1ccc2c(ccc3cccc[n+]32)c1` the survivor count [2] was 1 of 4.
For `CC1(C)OC(=O)CC1c1ccccc1` (stereo not drawn), the survivor count [3] was 2 of 6, the survivor count [4] was 0 of 6 and the survivor count [2] was 0 of 6.
`Nn1c2ccccc2c2ccccc21` was tested, and the survivor count [5] was 1 of 6.
With `Cc1ccc(S(=O)(=O)NS(=O)(=O)c2ccc(C)cc2)cc1` the survivor count (T/C endpoint: mean survival time, dose: 200.0 mg/kg/injection, schedule: Q04DX003 (ip), vehicle: Klucel (hydroxypropylcellulose) (HPC)) was 3 of 3, the survivor count [2] was 2 of 4 and the survivor count (T/C endpoint: mean survival time, dose: 400.0 mg/kg/injection, schedule: Q04DX003 (ip), vehicle: Klucel (hydroxypropylcellulose) (HPC)) was 2 of 3.
For `Cc1[nH]nc(C(N)=O)c1N=NN(C)C`, the T/C (T/C endpoint: mean survival time, dose: 19.0 mg/kg/injection, schedule: Q01DX009 (ip), vehicle: saline) was 138 % of control, the T/C (T/C endpoint: mean survival time, dose: 38.0 mg/kg/injection, schedule: Q01DX009 (ip), vehicle: saline) was 148 % of control and the T/C (T/C endpoint: mean survival time, dose: 50.0 mg/kg/injection, schedule: Q01DX001 (ip), vehicle: saline) was 131 % of control. For the same compound, the T/C [3] was 143 % of control, the survivor count (T/C endpoint: mean survival time, dose: 100.0 mg/kg/injection, schedule: Q01DX009 (ip), vehicle: saline) was 6 of 6 and the T/C (T/C endpoint: mean survival time, dose: 135.0 mg/kg/injection, schedule: Q01DX001 (ip), vehicle: saline) was 137 % of control. For the same compound, the T/C [4] was 133 % of control, the survivor count (T/C endpoint: mean survival time, dose: 200.0 mg/kg/injection, schedule: Q01DX009 (ip), vehicle: saline) was 0 of 6 and the T/C [6] was 130 [5 of 6 alive], 134 [4 of 6 alive], 137 % of control [4 of 6 alive]. For the same compound, the survivor count [7] was 0 of 6 and the survivor count (T/C endpoint: mean survival time, dose: 500.0 mg/kg/injection, schedule: Q01DX001 (ip), vehicle: saline) was 0 of 6.
In the case of `C=C(C)[C@H]1CN[C@H](C(=O)O)[C@H]1CC(=O)O`, the survivor count (T/C endpoint: mean survival time, dose: 75.0 mg/kg/injection, schedule: Q01DX001 (ip), vehicle: saline) is reported as 0 of 6, the survivor count (T/C endpoint: mean survival time, dose: 150.0 mg/kg/injection, schedule: Q01DX001 (ip), vehicle: saline) is reported as 0 of 6 and the survivor count [6] is reported as 1 of 6.
For `Cl/C(=N\Nc1ccccc1)c1ccccc1`, the T/C (T/C endpoint: mean survival time, dose: 7.5 mg/kg/injection, schedule: Q01DX009 (ip), vehicle: saline sonified) was 128 % of control.
In the case of `O=S(=O)(O)CNc1cc(Cl)cc(Cl)c1`, the survivor count [8] is reported as 6 of 6.
In the case of `Nc1nc(N)c(C=Nc2ccc(Br)cc2)c(Nc2ccc(Br)cc2)n1`, the survivor count (T/C endpoint: mean survival time, dose: 100.0 mg/kg/injection, schedule: Q01DX001 (ip), vehicle: alcohol) is reported as 4 of 4, the survivor count (T/C endpoint: mean survival time, dose: 200.0 mg/kg/injection, schedule: Q01DX001 (ip), vehicle: alcohol) is reported as 4 of 4 and the survivor count (T/C endpoint: mean survival time, dose: 400.0 mg/kg/injection, schedule: Q01DX001 (ip), vehicle: alcohol) is reported as 4 of 4.
With `CN(C)C1CCCCC1` the survivor count [8] was 6 of 6, the survivor count (T/C endpoint: mean survival time, dose: 200.0 mg/kg/injection, schedule: Q01DX009 (ip), vehicle: Klucel (hydroxypropylcellulose) (HPC)) was 0 of 6 and the survivor count [5] was 0 of 6.
`CCCCCCCCN1N=CC(CC)C1CCC` (stereo not drawn) was tested, and the survivor count [9] was 4 of 4.
With `COC1(c2ccccc2)OC(C(C)(C)C)=NC1(C)C` (stereo not drawn) the survivor count [10] was 0 of 6.
In the case of `Nc1ncnc2c1ccn2C1OC(CO)C(O)C1O` (stereo not drawn), the survivor count (T/C endpoint: mean survival time, dose: 0.5 mg/kg/injection, schedule: Q## X005 (ip), vehicle: carboxymethylcellulose (CMC)) is reported as 0 of 10, the T/C (T/C endpoint: mean survival time, dose: 2.0 mg/kg/injection, schedule: Q01DX001 (ip), vehicle: carboxymethylcellulose (CMC)) is reported as 130 % of control and the T/C (T/C endpoint: mean survival time, dose: 2.9 mg/kg/injection, schedule: Q01DX001 (ip), vehicle: carboxymethylcellulose (CMC)) is reported as 140 % of control. For the same compound, the T/C (T/C endpoint: mean survival time, dose: 4.0 mg/kg/injection, schedule: Q01DX001 (ip), vehicle: carboxymethylcellulose (CMC)) was 131 % of control, the survivor count (T/C endpoint: mean survival time, dose: 4.0 mg/kg/injection, schedule: Q02DX009 (ip), vehicle: carboxymethylcellulose (CMC)) was 10 of 10 and the T/C (T/C endpoint: mean survival time, dose: 4.0 mg/kg/injection, schedule: Q## X003 (ip), vehicle: carboxymethylcellulose (CMC)) was 127 % of control. The survivor count (T/C endpoint: mean survival time, dose: 5.0 mg/kg/injection, schedule: Q01DX Z (ip), vehicle: carboxymethylcellulose (CMC)) was 4 of 6, the survivor count (T/C endpoint: mean survival time, dose: 8.0 mg/kg/injection, schedule: Q01DX001 (ip), vehicle: carboxymethylcellulose (CMC)) was 6 of 10 and the survivor count (T/C endpoint: mean survival time, dose: 8.0 mg/kg/injection, schedule: Q## X003 (ip), vehicle: carboxymethylcellulose (CMC)) was 4 of 10. For the same compound, the survivor count (T/C endpoint: mean survival time, dose: 10.0 mg/kg/injection, schedule: Q01DX Z (ip), vehicle: carboxymethylcellulose (CMC)) was 0 of 6.
For `Cc1cccc(Nc2cc(=O)[nH]c(=O)[nH]2)c1C`, the survivor count (T/C endpoint: mean survival time, dose: 75.0 mg/kg/injection, schedule: Q01DX001 (ip), vehicle: saline with Tween-80) was 6 of 6.
With `COCC(=N)C(C#N)(OC)C(=O)c1ccccc1` (stereo not drawn) the survivor count (T/C endpoint: mean survival time, dose: 300.0 mg/kg/injection, schedule: Q01DX001 (ip), vehicle: other) was 1 of 6.
For `O=NN(CCCl)C(=O)NC(C(=O)O)C1CCCCC1` (stereo not drawn), the T/C (T/C endpoint: mean survival time, dose: 18.0 mg/kg/injection, schedule: Q01DX001 (ip), vehicle: saline with Tween-80) was 143 % of control, the survivor count (T/C endpoint: mean survival time, dose: 200.0 mg/kg/injection, schedule: Q01DX001 (ip), vehicle: saline with Tween-80) was 10 of 10 and the survivor count (T/C endpoint: mean survival time, dose: 300.0 mg/kg/injection, schedule: Q01DX001 (ip), vehicle: saline with Tween-80) was 9 of 10.
`COc1cccc(CN(C)C)c1C(C)(C)O` was tested, and the survivor count [4] was 3 of 6 and the survivor count [2] was 0 of 6.
With `N=C([Se])c1c(N)ncn1C1OC(CO)C(O)C1O` (stereo not drawn) the survivor count (T/C endpoint: mean survival time, dose: 100.0 mg/kg/injection, schedule: Q01DX005 (ip), vehicle: saline) was 1 of 6 and the survivor count (T/C endpoint: mean survival time, dose: 200.0 mg/kg/injection, schedule: Q01DX005 (ip), vehicle: saline) was 0 of 6.
In the case of `CC(c1c[nH]c2ccccc12)N1CCCCC1` (stereo not drawn), the survivor count (T/C endpoint: mean survival time, dose: 100.0 mg/kg/injection, schedule: Q04DX003 (ip), vehicle: acetone) is reported as 1 of 6, the survivor count (T/C endpoint: mean survival time, dose: 200.0 mg/kg/injection, schedule: Q01DX001 (ip), vehicle: carboxymethylcellulose (CMC)) is reported as 0 of 4 and the survivor count [9] is reported as 0 of 4.
With `CCOC(=O)NC(=S)NN` the survivor count [7] was 3 of 6.
For `CCCCCCCCCCCCCCCCCCN1C(=O)C2C(C1=O)C1(Cl)C(Cl)=C(Cl)C2(Cl)C1(Cl)Cl` (stereo not drawn), the survivor count [10] was 6 of 6.
